Results from PubChem BioAssay AID328 (DTP/NCI, 2004).
The list is a part of this screen's results and no random one: it is rich in T/C values a quarter to a half above the control, in often repeated tests (any T/C) and in doses without a T/C. Other doses and runs of a compound stand elsewhere. T/C gives the treated animals as a percentage of the vehicle group. Some doses have a count of surviving animals in place of a T/C: the source holds a T/C of zero for them, seemingly a mark for toxic or unscored doses. Some survivor counts are full or nearly so, which does not show that the dose was tolerated: the source hardly ever lists a survival T/C far under the control, and the zero likely stands for such cases as well. Counts of survivors are from the toxicity check (mostly the fifth day) where no day follows; animals may have died later. Schedule codes are those of the source, taken here to give the interval after Q, in days (D) or hours (H), and the number of doses after X. Some entries were tested several times; the results are listed from low to high. Where survival is the endpoint, the PubChem record calls one and a half times the control and up active, and a quarter to a half above the control has no call in these data; cut-offs in other NCI protocols can differ. Some T/C values are followed by the survivors on the day toxicity was checked, most often the fifth; without a count, all were alive then. Additions like (4×) count equal records among those shown.

Test system: BDF1 mice, P388 leukemia ip, median survival T/C
Assay: NCI In Vivo Anticancer Drug Screen. Data for tumor model P388 Leukemia (intraperitoneal) in B6D2F1 (BDF1) mice
Conditions: T/C endpoint: median survival time, higher T/C = longer survival
Method in brief: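 Mice carrying the transplantable tumour receive compound or vehicle. Survival is followed in each arm, and the treated measure is divided by the vehicle measure.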

[1] = dose: 50.0 mg/kg/injection, schedule: Q04DX003 (ip), vehicle: Klucel (hydroxypropylcellulose) (HPC)
[2] = dose: 100.0 mg/kg/injection, schedule: Q01DX005 (ip), vehicle: Klucel (hydroxypropylcellulose) (HPC)
[3] = dose: 100.0 mg/kg/injection, schedule: Q01DX009 (ip), vehicle: Klucel (hydroxypropylcellulose) (HPC)
[4] = dose: 100.0 mg/kg/injection, schedule: Q04DX003 (ip), vehicle: Klucel (hydroxypropylcellulose) (HPC)
[5] = dose: 200.0 mg/kg/injection, schedule: Q01DX001 (ip), vehicle: Klucel (hydroxypropylcellulose) (HPC)
[6] = dose: 200.0 mg/kg/injection, schedule: Q01DX005 (ip), vehicle: Klucel (hydroxypropylcellulose) (HPC)
[7] = dose: 200.0 mg/kg/injection, schedule: Q01DX009 (ip), vehicle: Klucel (hydroxypropylcellulose) (HPC)
[8] = dose: 200.0 mg/kg/injection, schedule: Q04DX003 (ip), vehicle: Klucel (hydroxypropylcellulose) (HPC)
[9] = dose: 400.0 mg/kg/injection, schedule: Q04DX002 (ip), vehicle: Klucel (hydroxypropylcellulose) (HPC)
[10] = dose: 400.0 mg/kg/injection, schedule: Q04DX003 (ip), vehicle: Klucel (hydroxypropylcellulose) (HPC)

NC(=S)N/N=C/c1ccc(O)cn1
T/C (dose: 25.0 mg/kg/injection, schedule: Q01DX005 (ip), vehicle: Klucel (hydroxypropylcellulose) (HPC)): 109, 117, 119, 122, 123, 131, 132, 134, 134 [5 of 6 alive], 137, 140 (2×), 144, 148, 148 [5 of 6 alive], 150 (2×), 154, 156, 161, 162, 163, 165, 166, 168, 170, 171 (2×), 173 (2×), 174, 176, 181, 182, 190 % of control
T/C (dose: 25.0 mg/kg/injection, schedule: Q01DX009 (ip), vehicle: Klucel (hydroxypropylcellulose) (HPC)): 118, 119, 124, 128, 135, 148 (3×), 150, 151, 152, 157, 162 (2×), 163, 165, 165 [2 of 3 alive], 167, 169, 173, 176, 179, 180 [5 of 6 alive], 181, 184, 187, 189, 192, 193, 194, 195, 207, 209, 221, 226 % of control
T/C (dose: 25.0 mg/kg/injection, schedule: Q04DX002 (ip), vehicle: Klucel (hydroxypropylcellulose) (HPC)): 135 % of control
T/C (dose: 25.0 mg/kg/injection, schedule: Q04DX003 (ip), vehicle: Klucel (hydroxypropylcellulose) (HPC)): 133 % of control
T/C (dose: 50.0 mg/kg/injection, schedule: Q01DX001 (ip), vehicle: Klucel (hydroxypropylcellulose) (HPC)): 97, 107, 109, 110 [2 of 3 alive], 112 (3×), 115, 120 (2×), 121 (2×), 122, 124 [5 of 6 alive], 128, 129 (2×), 133 (2×), 134 (2×), 136, 138, 142, 147, 148, 149, 162 % of control
T/C (dose: 50.0 mg/kg/injection, schedule: Q01DX005 (ip), vehicle: Klucel (hydroxypropylcellulose) (HPC)): 117, 123, 125, 131, 134 [2 of 3 alive], 137 [5 of 6 alive], 142, 144, 148 (2×), 149 (2×), 154, 157, 159, 159 [4 of 6 alive], 160, 161, 165, 168, 172, 174 [5 of 6 alive], 176, 177, 178, 181, 187, 191, 193 (2×), 198, 203, 207, 210, 249 % of control
T/C (dose: 50.0 mg/kg/injection, schedule: Q01DX009 (ip), vehicle: Klucel (hydroxypropylcellulose) (HPC)): 135, 140 [2 of 3 alive], 150, 151, 153, 160, 164, 165, 166, 168, 172, 173 (2×), 175, 176, 187, 189, 190, 193, 196 (2×), 197, 198, 199 (2×), 201, 203, 205, 211, 213, 217, 225, 233, 245, 247, 257 % of control
T/C (dose: 50.0 mg/kg/injection, schedule: Q04DX002 (ip), vehicle: Klucel (hydroxypropylcellulose) (HPC)): 94, 113, 116, 118 (2×), 120, 121, 122, 125 (2×), 126, 128, 129 (2×), 130, 132, 133 (2×), 134, 139, 142, 146, 147, 150, 151, 152 (2×), 154, 159, 161 (2×), 171 (2×), 173 % of control
T/C [1]: 108, 111, 115, 117, 117 [5 of 6 alive], 127, 130, 132, 133, 134 (2×), 135, 139, 141, 142 (3×), 146 (2×), 149 (3×), 150 (2×), 151, 155 (2×), 156 (2×), 158, 161, 168, 168 [4 of 6 alive], 175, 228 % of control
survivor count [1]: 3 of 3
T/C (dose: 100.0 mg/kg/injection, schedule: Q01DX001 (ip), vehicle: Klucel (hydroxypropylcellulose) (HPC)): 93, 106, 112, 113, 120 (2×), 122, 123, 126, 128 (2×), 130 (2×), 133, 134 [5 of 6 alive], 135 (2×), 136, 137 (2×), 148, 151 (2×), 154, 155, 158, 159, 161 % of control
T/C [2]: 102, 115, 117, 126, 128, 130, 139, 149, 153, 160, 166, 168, 174, 177 [2 of 3 alive], 179, 182, 190, 191, 192, 193, 195 [5 of 6 alive], 198, 201, 202 (2×), 212, 216, 220, 221, 224, 227, 229, 248, 250 % of control
survivor count [2]: 3 of 3
T/C [3]: 86 (2×), 87, 88, 103, 120, 142, 151, 162, 165, 168, 178, 179, 180, 181, 182, 189, 194, 195, 201, 203, 205 [5 of 6 alive], 207, 217, 220, 223, 226, 229, 236, 242, 243, 248, 267 % of control
survivor count [3]: 3 of 3 and 6 of 6
T/C (dose: 100.0 mg/kg/injection, schedule: Q04DX002 (ip), vehicle: Klucel (hydroxypropylcellulose) (HPC)): 102, 113, 114, 115, 121 (2×), 122, 133, 134, 137, 138 (2×), 141, 142, 145, 146, 147 (2×), 148, 149, 150, 152, 154, 155 (2×), 160, 161 (2×), 164, 165, 169 (2×), 171 % of control (2×)
T/C [4]: 103, 123, 129, 133, 139 (2×), 140, 141, 142, 144, 145 (2×), 146, 147 (3×), 151, 155, 159, 160, 161, 163 (2×), 164, 165, 166, 168, 174, 175, 178 (2×), 179, 180, 185, 186 % of control
survivor count [4]: 3 of 3
survivor count (dose: 150.0 mg/kg/injection, schedule: Q01DX009 (ip), vehicle: saline with Tween-80): 6 of 6
T/C [5]: 121, 126, 127, 128, 129 (3×), 131, 136, 139 (2×), 140, 144 (2×), 145, 146, 148, 149, 151 (2×), 154, 155, 159, 161, 163, 165, 175 % of control
survivor count [5]: 6 of 6
T/C [6]: 89, 93, 126, 154, 163, 168, 175, 188, 189 (2×), 193, 194, 218 % of control
survivor count [6]: 2 of 3, 3 of 3, 6 of 6
T/C [7]: 86, 88 [5 of 6 alive], 92, 97, 98, 112, 137, 187 [5 of 6 alive], 193, 264, 271 % of control
survivor count [7]: 2 of 3, 4 of 6, 5 of 6, 3 of 3, 6 of 6
T/C (dose: 200.0 mg/kg/injection, schedule: Q04DX002 (ip), vehicle: Klucel (hydroxypropylcellulose) (HPC)): 114, 120, 121, 125, 127, 132, 135, 137, 138, 141, 142, 143, 153 [5 of 6 alive], 154, 156, 158, 162 (2×), 165, 166 (2×), 167, 169 (2×), 173, 174 (2×), 175, 180, 181, 186 (2×), 193, 205 % of control
T/C [8]: 110, 125, 129 (2×), 131, 146, 159, 160 (3×), 162, 163, 165 (2×), 166, 167, 169 (2×), 170, 171, 172, 175, 176, 180, 181, 182, 183, 185, 188, 189, 190 (2×), 204, 209 % of control (2×)
survivor count [8]: 3 of 3
survivor count (dose: 300.0 mg/kg/injection, schedule: Q01DX009 (ip), vehicle: saline with Tween-80): 6 of 6
T/C (dose: 400.0 mg/kg/injection, schedule: Q01DX001 (ip), vehicle: Klucel (hydroxypropylcellulose) (HPC)): 134, 137, 138, 138 [5 of 6 alive], 139, 139 [5 of 6 alive], 141, 143, 146, 147, 149, 150, 151, 152, 154 (3×), 156, 157, 160 (3×), 163 (2×), 171, 188 % of control
survivor count (dose: 400.0 mg/kg/injection, schedule: Q01DX009 (ip), vehicle: Klucel (hydroxypropylcellulose) (HPC)): 6 of 6
T/C [9]: 112, 115, 121, 128 (2×), 134, 141, 148, 151, 152, 154, 155, 156, 159, 160, 169, 171, 174 [5 of 6 alive], 175, 181, 188, 192 (2×), 194, 200, 204, 205, 217, 221 % of control
survivor count [9]: 3 of 3 and 6 of 6
T/C [10]: 87, 88, 94, 96, 129, 135, 136, 144, 149, 163, 164, 171, 174 (2×), 175, 176, 179, 180, 181, 190, 192, 194, 195, 200, 203, 215, 217, 218, 220, 223, 227 % of control
survivor count [10]: 3 of 3
